This assay has as its target Flag-tagged ZNF268a (human) (UniProt Q14587). In words: affinity purification with mass spectrom.

The chains behind the UniProt entries cited, without tags or fusion partners.
UniProt Q14587: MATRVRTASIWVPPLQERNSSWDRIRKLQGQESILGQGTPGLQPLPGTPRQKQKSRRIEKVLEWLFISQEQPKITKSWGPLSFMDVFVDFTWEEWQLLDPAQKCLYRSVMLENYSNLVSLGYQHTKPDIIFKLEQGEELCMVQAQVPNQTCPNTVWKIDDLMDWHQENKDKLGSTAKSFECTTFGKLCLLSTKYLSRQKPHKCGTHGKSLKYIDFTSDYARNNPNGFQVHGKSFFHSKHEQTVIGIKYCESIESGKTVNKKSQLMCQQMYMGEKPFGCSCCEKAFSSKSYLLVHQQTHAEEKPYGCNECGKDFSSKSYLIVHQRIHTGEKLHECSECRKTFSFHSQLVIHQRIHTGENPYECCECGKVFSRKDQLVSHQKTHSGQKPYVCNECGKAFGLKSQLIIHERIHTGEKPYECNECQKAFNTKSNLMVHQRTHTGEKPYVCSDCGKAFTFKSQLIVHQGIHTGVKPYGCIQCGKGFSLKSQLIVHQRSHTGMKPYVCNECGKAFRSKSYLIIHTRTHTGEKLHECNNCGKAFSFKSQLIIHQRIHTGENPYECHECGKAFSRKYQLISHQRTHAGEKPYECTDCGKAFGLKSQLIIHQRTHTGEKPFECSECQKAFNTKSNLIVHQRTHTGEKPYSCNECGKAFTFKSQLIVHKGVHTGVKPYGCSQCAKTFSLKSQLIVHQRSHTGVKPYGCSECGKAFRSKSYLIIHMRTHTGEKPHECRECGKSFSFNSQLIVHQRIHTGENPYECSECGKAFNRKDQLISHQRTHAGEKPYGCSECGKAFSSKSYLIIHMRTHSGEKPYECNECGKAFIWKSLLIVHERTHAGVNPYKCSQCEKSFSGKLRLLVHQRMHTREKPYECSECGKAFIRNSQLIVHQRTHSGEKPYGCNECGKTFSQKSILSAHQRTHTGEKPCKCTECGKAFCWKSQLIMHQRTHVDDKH

These are yes or no findings as the source states them, for the method shown. In cells and extracts the contact can be indirect. A yes stands for co-enrichment or nearness to the bait. Other partners may have been found.

B1: SETD4 (endogenous, found by mass spectrometry) (enzyme, UniProt Q9NVD3 1-440)
chain: MQKGKGRTSRIRRRKLCGSSESRGVNESHKSEFIELRKWLKARKFQDSNLAPACFPGTGRGLMSQTSLQEGQMIISLPESCLLTTDTVIRSYLGAYITKWKPPPSPLLALCTFLVSEKHAGHRSLWKPYLEILPKAYTCPVCLEPEVVNLLPKSLKAKAEEQRAHVQEFFASSRDFFSSLQPLFAEAVDSIFSYSALLWAWCTVNTRAVYLRPRQRECLSAEPDTCALAPYLDLLNHSPHVQVKAAFNEETHSYEIRTTSRWRKHEEVFICYGPHDNQRLFLEYGFVSVHNPHACVYVSREILVKYLPSTDKQMDKKISILKDHGYIENLTFGWDGPSWRLLTALKLLCLEAEKFTCWKKVLLGEVISDTNEKTSLDIAQKICYYFIEETNAVLQKVSHMKDEKEALINQLTLVESLWTEELKILRASAETLHSLQTAFT
As for B1, the binding entry is on record as “binds”.
